From PMC3338822 come the findings set out here.

Amino acid sequences for entries named in this document (tags omitted). A change or cut given only in a name is not applied to a line headed by its entry.
UniProt A7EKS0: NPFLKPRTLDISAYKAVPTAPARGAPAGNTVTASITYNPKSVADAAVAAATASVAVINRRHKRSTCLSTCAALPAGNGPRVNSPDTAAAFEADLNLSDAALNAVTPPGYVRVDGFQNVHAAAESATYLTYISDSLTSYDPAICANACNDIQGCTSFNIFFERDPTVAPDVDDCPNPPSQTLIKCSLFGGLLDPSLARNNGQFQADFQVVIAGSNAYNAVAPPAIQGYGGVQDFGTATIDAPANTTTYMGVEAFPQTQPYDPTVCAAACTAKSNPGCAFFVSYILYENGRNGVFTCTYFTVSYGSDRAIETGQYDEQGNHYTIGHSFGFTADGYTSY
UniProt A7EJM6: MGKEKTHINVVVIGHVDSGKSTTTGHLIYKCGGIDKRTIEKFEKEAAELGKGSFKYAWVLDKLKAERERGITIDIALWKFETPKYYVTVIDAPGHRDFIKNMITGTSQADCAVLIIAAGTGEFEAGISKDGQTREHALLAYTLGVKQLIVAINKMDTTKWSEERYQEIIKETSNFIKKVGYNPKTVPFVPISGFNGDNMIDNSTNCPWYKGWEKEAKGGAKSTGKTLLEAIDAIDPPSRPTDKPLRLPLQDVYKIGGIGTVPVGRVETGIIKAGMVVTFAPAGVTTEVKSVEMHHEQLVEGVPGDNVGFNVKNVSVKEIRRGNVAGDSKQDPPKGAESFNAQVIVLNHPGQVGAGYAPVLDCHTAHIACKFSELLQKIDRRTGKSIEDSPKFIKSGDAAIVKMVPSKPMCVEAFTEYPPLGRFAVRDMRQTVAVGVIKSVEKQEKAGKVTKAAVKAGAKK

The test has as its target Ss-Sl2 amino acid 17-352 (without signal peptide), bait in pGBKT7 (Sclerotinia sclerotiorum) (UniProt A7EKS0). Kind of test: two-hybrid; GAL4-based Matchmaker Gold system; Ss-Sl2 aa 17-352 in pGBKT7 as bait, full length cDNAs in pGADT7 as preys, co-transformed into Y2HGold; growth on SD/-Trp-Leu-His-Ade and the same with X-α-gal.

Results are given in words; binding and its absence hold for the method and conditions named. Binding calls can cover weak binding; strength is not graded here.

Take “elongation factor 1-alpha, prey in pGADT7 (from UniProt A7EJM6)”: the binding result was “binds weakly”.
